From patent US20160264935A1, “TRANSFORMED HUMAN PLURIPOTENT STEM CELLS AND ASSOCIATED METHODS” (McMaster University, priority 2009, published 2016)
For at least one compound, name, drawing or mass did not settle the structure.

Test system: t-hPSCs (V1-H9) compared to H9 and iPS1.2 cells
Experiment: Normalized cell count (Hoechst, ArrayScan) of t-hPSCs versus hPSCs and iPS1.2 cells
Type: cell-based, human
Conditions: 100 nM Rapamycin, 96 hours, normalised to 0.1% DMSO control

## CO[C@H]1C[C@@H]2CC[C@@H](C)[C@@](O)(O2)C(=O)C(=O)N2CCCC[C@H]2C(=O)O[C@H]([C@H](C)C[C@@H]2CC[C@@H](O)[C@H](OC)C2)CC(=O)[C@H](C)/C=C(\C)[C@@H](O)[C@@H](OC)C(=O)[C@H](C)C[C@H](C)/C=C/C=C/C=C/1C [rapamycin, Rapamycin]
  Normalized cell count: differentially affecting t-hPSCs
Listed as RAP
  Normalized cell count: reduce the number of t-hPSCs
